Reference: PMC4489650, “Aurora-A-Dependent Control of TACC3 Influences the Rate of Mitotic Spindle Assembly” (PLoS Genetics, 2015)
Results are given in words; binding and its absence hold for the method and conditions named. For part of these data: Binding seen in cells or lysates may run through a third protein. Some binding calls cover weakened binding; strength is not graded here. For part of these data: Where a sequence is shown, tags or fusion partners need not be part of it.

By UniProt entry, the sequences of proteins in these tests, tags left out.
UniProt Q9PTG8: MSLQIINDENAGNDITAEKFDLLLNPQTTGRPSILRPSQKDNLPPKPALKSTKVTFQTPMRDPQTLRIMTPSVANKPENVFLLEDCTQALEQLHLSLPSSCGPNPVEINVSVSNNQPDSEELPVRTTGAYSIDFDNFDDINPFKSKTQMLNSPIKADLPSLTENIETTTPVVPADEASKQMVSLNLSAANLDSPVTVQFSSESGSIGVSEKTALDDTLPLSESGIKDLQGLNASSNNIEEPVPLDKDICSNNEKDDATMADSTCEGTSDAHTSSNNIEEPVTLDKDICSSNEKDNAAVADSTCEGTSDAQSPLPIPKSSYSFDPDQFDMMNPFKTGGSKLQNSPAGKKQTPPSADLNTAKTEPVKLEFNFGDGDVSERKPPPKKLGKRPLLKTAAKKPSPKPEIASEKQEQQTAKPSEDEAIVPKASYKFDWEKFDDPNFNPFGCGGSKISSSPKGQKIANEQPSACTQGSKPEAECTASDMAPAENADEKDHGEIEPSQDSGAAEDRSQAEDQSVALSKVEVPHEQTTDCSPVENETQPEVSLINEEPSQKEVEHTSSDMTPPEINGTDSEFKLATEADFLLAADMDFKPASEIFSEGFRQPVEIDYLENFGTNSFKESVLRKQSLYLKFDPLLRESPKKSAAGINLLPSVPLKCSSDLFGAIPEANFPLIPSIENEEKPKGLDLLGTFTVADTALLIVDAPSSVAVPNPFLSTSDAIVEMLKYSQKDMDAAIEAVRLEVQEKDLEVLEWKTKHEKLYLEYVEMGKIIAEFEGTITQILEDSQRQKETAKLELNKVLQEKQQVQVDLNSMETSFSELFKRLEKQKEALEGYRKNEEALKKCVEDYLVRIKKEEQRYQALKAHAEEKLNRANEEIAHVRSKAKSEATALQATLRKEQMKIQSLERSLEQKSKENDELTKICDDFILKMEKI

Experiments:
[1] = target: GST-XTACC3 (full-length Xenopus TACC3, maskin) (Xenopus laevis) (UniProt Q9PTG8); assay: pull-down; 3 uM recombinant GST protein preincubated in CSF-arrested Xenopus egg extract, retrieved on beads (anti-GST on protein A Dynabeads by the methods; Gluthathione Sepharose by the legend); Western blot; only the target purified
[2] = target: GST-XTACC3 (full-length Xenopus TACC3, maskin) (Xenopus laevis) (UniProt Q9PTG8); assay: pull-down; in vitro GST pull-down: 5-10 ug GST recombinant protein on anti-GST coated beads, 0.25 uM His-AurA in kinase buffer (20 mM Hepes pH 7.5, 200 mM KCl, 30 mM MgCl2, 0.5 mM EGTA, 1 mM DTT, 0.05% Triton X-100, 1 mg/ml BSA), 30 mins at 22 C; Western blot; both purified
[3] = target: T1, GST-AurA-DN (GST fused to Aurora-A catalytic domain 122–403 D274N) (UniProt O14965); assay: pull-down; GST co-precipitation: 100 ug GST-AurA-DN (2 uM in the TPX2 gradient experiment, with 5 uM TACC3act-H6c and 1-50 uM His6-TPX2^1-43) immobilised on Gluthathione Sepharose 4B; 100 ug TACC3 or TPX2^1-43 added, 2 hrs at 4 C; 50 mM Tris pH 7.5, 150 mM NaCl, 5 mM MgCl2, 5 mM beta-mercaptoethanol, 0.02% TWEEN 20; SDS-PAGE and anti-His6 blot; both purified
T1 sequence: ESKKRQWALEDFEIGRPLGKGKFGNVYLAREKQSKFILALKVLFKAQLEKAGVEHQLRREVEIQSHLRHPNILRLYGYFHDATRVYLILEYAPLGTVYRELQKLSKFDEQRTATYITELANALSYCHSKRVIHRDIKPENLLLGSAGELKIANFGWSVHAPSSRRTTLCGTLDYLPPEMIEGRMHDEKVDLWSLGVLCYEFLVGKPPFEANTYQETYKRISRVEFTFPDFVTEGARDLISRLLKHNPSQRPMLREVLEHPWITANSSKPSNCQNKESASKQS

B1: endogenous AurA in Xenopus egg extract (protein, UniProt Q91820 1-407)
chain: MERAVKENHKPSNVKIFHPMTEGAKRIPVNQPQSTQFRPPGTAVSAQRILGPSNVPQRVLAQAQKPILSSQKPTTQIPLRPATQGHQSSKPQGPNENRNPQQTSHSSTPNVEKKGSTDQGKTSAVPKEEGKKKQWCLEDFEIGRPLGKGKFGNVYLARERESKFILALKVLFKSQLEKAGVEHQLRREVEIQSHLRHPNILRLYGYFHDASRVYLILDYAPGGELFRELQKCTRFDDQRSAMYIKQLAEALLYCHSKKVIHRDIKPENLLLGSNGELKIADFGWSVHAPSSRRTTLCGTLDYLPPEMIEGRMHDETVDLWSLGVLCYEFLVGKPPFETDTHQETYRRISKVEFQYPPYVSEEARDLVSKLLKHNPNHRLPLKGVLEHPWIIKNSQLKKKDEPLPGAQ
[1]
  binding: binds

B2: His-AurA-WT (Xenopus Aurora A, wild-type) (enzyme, UniProt Q91820 1-407)
chain: MERAVKENHKPSNVKIFHPMTEGAKRIPVNQPQSTQFRPPGTAVSAQRILGPSNVPQRVLAQAQKPILSSQKPTTQIPLRPATQGHQSSKPQGPNENRNPQQTSHSSTPNVEKKGSTDQGKTSAVPKEEGKKKQWCLEDFEIGRPLGKGKFGNVYLARERESKFILALKVLFKSQLEKAGVEHQLRREVEIQSHLRHPNILRLYGYFHDASRVYLILDYAPGGELFRELQKCTRFDDQRSAMYIKQLAEALLYCHSKKVIHRDIKPENLLLGSNGELKIADFGWSVHAPSSRRTTLCGTLDYLPPEMIEGRMHDETVDLWSLGVLCYEFLVGKPPFETDTHQETYRRISKVEFQYPPYVSEEARDLVSKLLKHNPNHRLPLKGVLEHPWIIKNSQLKKKDEPLPGAQ
[2]
  binding: binds

B3: TACC3act-H6c F525A (domain or fragment, human, UniProt Q9Y6A5 519-563, looked up)
chain: ELKEESARDPAEVLGTGAEVDYLEQFGTSSFKESALRKQSLYLKF
notes: also called F525A mutant; source: recombinant, purified; not shown: His6, C-terminal, kept
[3]
  binding: binds weakly
